These are yes or no findings as the source states them, for the method shown. Binding calls can cover weak binding; strength is not graded here.
Target: LptDE complex from Pseudomonas aeruginosa with a hexahistidine tag on LptE (Pseudomonas aeruginosa)
Assay: native MS

B1: endogenous E. coli lipoprotein YbjP (protein, UniProt P75818 19-171)
chain: CTTVTPAYKDNGTRSGPCVEGGPDNVAQQFYDYRILHRSNDITALRPYLSDKLATLLSDASRDNNHRELLTNDPFSSRTTLPDSAHVASASTIPNRDARNIPLRVDLKQGDQGWQDEVLMIQEGQCWVIDDVRYLGGSVHATAGTLRQSIENR
binding: binds

— article doi:10.1101/2022.12.25.521893 (bioRxiv, 2022)
